Taken from: PubChem BioAssay AID686938 (Drosophila RNAi Screening Center, 2013)

Aim: 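Fly genes required for calcium entry once internal stores are emptied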 (primary screen)
System: Drosophila S2R+ cells
Reagent: long dsRNA against Drosophila genes, about 0.25 µg dsRNA per well, roughly 10,000 cells
Duration: 5 days of knock-down before the calcium assay
Conditions: thapsigargin (SERCA pump blocker) to empty calcium stores; entry signal taken 4 min after adding it
Measured: 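Duplicate raw fluo-4 intensities per well from a plate reader, at rest and four minutes after thapsigargin emptied calcium stores; entry-to-rest ratio filled for only some wells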
Reading the numbers: calcium entry signal: higher = stronger calcium signal after store depletion; resting calcium signal: higher = higher resting calcium signal
Units: calcium entry signal in fluorescence units; resting calcium signal in fluorescence units
Rule for the call: 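Hit if the duplicate-averaged plate z-score for entry over resting signal is under −3; wells with weak total dye signal (Fmax z < −2) or more than 5 off-targets removed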
Calls: active = strongly reduced calcium entry; inactive = no strong reduction
The deposit covers about 23,000 reagents; below is a random part of those with a known target gene and a result. In the full data, 75 (0.33%) are marked active. 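Raw plate signals without normalisation; calls rest on plate z-scores that were not deposited; ratio present for only 364 wells.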 Unmarked entries are inactive. The numbers tell different reagents against one gene apart. Names joined by + are all predicted targets of the reagent. No sequences are given here. Not given: the dose of the treatment.

For Gmap #1, what does the deposit list?
calcium entry signal, replicate 1: 2.41e7; calcium entry signal, replicate 2: 2.88e7; resting calcium signal, replicate 1: 1.19e7; resting calcium signal, replicate 2: 1.40e7

How did the screen score Gmap #2?
calcium entry signal, replicate 1: 2.71e7; calcium entry signal, replicate 2: 2.59e7; resting calcium signal, replicate 1: 1.45e7; resting calcium signal, replicate 2: 1.11e7

What is on record for COX1 (retired record)?
calcium entry signal, replicate 1: 3.56e7; calcium entry signal, replicate 2: 4.13e7; resting calcium signal, replicate 1: 1.95e7; resting calcium signal, replicate 2: 1.87e7

What did the screen give for Polr1D + DCTN6-p27?
calcium entry signal, replicate 1: 2.32e7; calcium entry signal, replicate 2: 3.20e7; resting calcium signal, replicate 1: 1.29e7; resting calcium signal, replicate 2: 1.60e7

With CG13380 + CG4174 #1, what was measured?
calcium entry signal, replicate 1: 4.43e7; calcium entry signal, replicate 2: 5.11e7; resting calcium signal, replicate 1: 2.02e7; resting calcium signal, replicate 2: 3.38e7

What did the screen give for CG13380 + CG4174 #2?
calcium entry signal, replicate 1: 4.36e7; calcium entry signal, replicate 2: 6.96e7; resting calcium signal, replicate 1: 2.02e7; resting calcium signal, replicate 2: 2.82e7

Which result is listed for CG31680?
calcium entry signal, replicate 1: 2.64e7; calcium entry signal, replicate 2: 4.05e7; resting calcium signal, replicate 1: 1.31e7; resting calcium signal, replicate 2: 1.97e7

How did the screen score Tsp42Eh?
calcium entry signal, replicate 1: 4.40e7; calcium entry signal, replicate 2: 4.00e7; resting calcium signal, replicate 1: 2.03e7; resting calcium signal, replicate 2: 1.68e7

What did the screen give for AsnRS-m?
calcium entry signal, replicate 1: 3.71e7; calcium entry signal, replicate 2: 4.13e7; resting calcium signal, replicate 1: 1.56e7; resting calcium signal, replicate 2: 1.70e7

For TyrRS, what does the deposit list?
calcium entry signal, replicate 1: 3.39e7; calcium entry signal, replicate 2: 3.84e7; resting calcium signal, replicate 1: 1.56e7; resting calcium signal, replicate 2: 2.39e7

For CG17648, what does the deposit list?
calcium entry signal, replicate 1: 3.14e7; calcium entry signal, replicate 2: 4.29e7; resting calcium signal, replicate 1: 1.52e7; resting calcium signal, replicate 2: 1.65e7

How did the screen score CG11970?
calcium entry signal, replicate 1: 2.79e7; calcium entry signal, replicate 2: 3.64e7; resting calcium signal, replicate 1: 1.34e7; resting calcium signal, replicate 2: 1.73e7

Which result is listed for Bin1?
calcium entry signal, replicate 1: 3.28e7; calcium entry signal, replicate 2: 5.29e7; resting calcium signal, replicate 1: 1.61e7; resting calcium signal, replicate 2: 7.09e7

With Shark, what was measured?
calcium entry signal, replicate 1: 3.59e7; calcium entry signal, replicate 2: 3.34e7; resting calcium signal, replicate 1: 1.67e7; resting calcium signal, replicate 2: 1.59e7

Sorted by “calcium entry signal, replicate 1” (high to low): some entries from above
AsnRS-m | calcium entry signal, replicate 1: 3.71e7; calcium entry signal, replicate 2: 4.13e7; resting calcium signal, replicate 1: 1.56e7; resting calcium signal, replicate 2: 1.70e7
TyrRS | calcium entry signal, replicate 1: 3.39e7; calcium entry signal, replicate 2: 3.84e7; resting calcium signal, replicate 1: 1.56e7; resting calcium signal, replicate 2: 2.39e7
CG17648 | calcium entry signal, replicate 1: 3.14e7; calcium entry signal, replicate 2: 4.29e7; resting calcium signal, replicate 1: 1.52e7; resting calcium signal, replicate 2: 1.65e7
CG11970 | calcium entry signal, replicate 1: 2.79e7; calcium entry signal, replicate 2: 3.64e7; resting calcium signal, replicate 1: 1.34e7; resting calcium signal, replicate 2: 1.73e7

Further reagents:
With CG13893, what does the deposit list?
calcium entry signal, replicate 1: 3.62e7; calcium entry signal, replicate 2: 3.96e7; resting calcium signal, replicate 1: 1.88e7; resting calcium signal, replicate 2: 1.78e7

How did the screen score CG30105?
calcium entry signal, replicate 1: 4.35e7; calcium entry signal, replicate 2: 4.27e7; resting calcium signal, replicate 1: 1.81e7; resting calcium signal, replicate 2: 2.12e7

With CG17292, what does the deposit list?
calcium entry signal, replicate 1: 5.35e7; resting calcium signal, replicate 1: 2.28e7

Which result is listed for Rpn12?
calcium entry signal, replicate 1: 2.38e7; calcium entry signal, replicate 2: 2.88e7; resting calcium signal, replicate 1: 1.63e7; resting calcium signal, replicate 2: 1.70e7

What did the screen give for Leash?
calcium entry signal, replicate 1: 4.13e7; calcium entry signal, replicate 2: 4.14e7; resting calcium signal, replicate 1: 2.00e7; resting calcium signal, replicate 2: 2.14e7

For CecA2, what does the deposit list?
calcium entry signal, replicate 1: 1.95e7; calcium entry signal, replicate 2: 2.81e7; resting calcium signal, replicate 1: 1.08e7; resting calcium signal, replicate 2: 1.31e7

For Sulf1 #1, how do the results read?
calcium entry signal, replicate 1: 3.66e7; calcium entry signal, replicate 2: 3.99e7; resting calcium signal, replicate 1: 2.02e7; resting calcium signal, replicate 2: 1.80e7

With Sulf1 #2, what was measured?
calcium entry signal, replicate 1: 3.27e7; calcium entry signal, replicate 2: 4.49e7; resting calcium signal, replicate 1: 1.64e7; resting calcium signal, replicate 2: 7.54e7

With CG15390, what was measured?
calcium entry signal, replicate 1: 3.55e7; calcium entry signal, replicate 2: 3.02e7; resting calcium signal, replicate 1: 1.58e7; resting calcium signal, replicate 2: 1.32e7

Which result is listed for CG42535?
calcium entry signal, replicate 1: 4.47e7; calcium entry signal, replicate 2: 3.56e7; resting calcium signal, replicate 1: 2.40e7; resting calcium signal, replicate 2: 1.67e7

For CG43755, what does the deposit list?
calcium entry signal, replicate 1: 3.29e7; calcium entry signal, replicate 2: 3.12e7; resting calcium signal, replicate 1: 1.59e7; resting calcium signal, replicate 2: 1.47e7

With Dronc, what does the deposit list?
calcium entry signal, replicate 1: 5.38e7; calcium entry signal, replicate 2: 3.35e7; resting calcium signal, replicate 1: 3.06e7; resting calcium signal, replicate 2: 1.48e7

For Ugt303B1, how do the results read?
calcium entry signal, replicate 1: 3.12e7; calcium entry signal, replicate 2: 3.68e7; resting calcium signal, replicate 1: 1.91e7; resting calcium signal, replicate 2: 1.54e7
